The results in this text go back to publication PMC8638142.

Protein sequences, listed by entry. Tags and fused reporters are not part of them.
UniProt P35222: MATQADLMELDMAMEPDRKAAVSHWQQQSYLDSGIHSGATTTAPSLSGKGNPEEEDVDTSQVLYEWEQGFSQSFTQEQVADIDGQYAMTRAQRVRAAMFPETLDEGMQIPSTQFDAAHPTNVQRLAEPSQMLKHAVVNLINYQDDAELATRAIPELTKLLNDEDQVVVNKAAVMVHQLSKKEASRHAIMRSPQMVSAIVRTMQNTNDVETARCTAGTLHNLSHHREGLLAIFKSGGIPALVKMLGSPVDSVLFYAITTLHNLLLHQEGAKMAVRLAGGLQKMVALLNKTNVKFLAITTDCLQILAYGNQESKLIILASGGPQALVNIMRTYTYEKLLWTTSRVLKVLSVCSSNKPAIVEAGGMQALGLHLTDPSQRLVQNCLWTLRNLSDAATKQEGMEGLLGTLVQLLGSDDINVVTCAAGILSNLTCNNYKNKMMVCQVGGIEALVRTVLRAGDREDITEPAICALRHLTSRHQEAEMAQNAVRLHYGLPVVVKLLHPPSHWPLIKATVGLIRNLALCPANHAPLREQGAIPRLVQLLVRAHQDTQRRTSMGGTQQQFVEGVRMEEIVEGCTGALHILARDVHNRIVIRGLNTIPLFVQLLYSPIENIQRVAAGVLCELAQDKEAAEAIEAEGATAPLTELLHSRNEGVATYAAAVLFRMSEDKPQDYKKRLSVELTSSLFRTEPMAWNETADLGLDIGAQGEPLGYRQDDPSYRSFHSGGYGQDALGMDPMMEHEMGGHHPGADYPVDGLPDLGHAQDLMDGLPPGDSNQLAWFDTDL

Assay [1] concerns the target T1, PKMYT1 (the protein kinase, membrane-associated tyrosine/threonine 1), endogenous (human (endogenous in A549)) (UniProt Q99640).
T1 sequence: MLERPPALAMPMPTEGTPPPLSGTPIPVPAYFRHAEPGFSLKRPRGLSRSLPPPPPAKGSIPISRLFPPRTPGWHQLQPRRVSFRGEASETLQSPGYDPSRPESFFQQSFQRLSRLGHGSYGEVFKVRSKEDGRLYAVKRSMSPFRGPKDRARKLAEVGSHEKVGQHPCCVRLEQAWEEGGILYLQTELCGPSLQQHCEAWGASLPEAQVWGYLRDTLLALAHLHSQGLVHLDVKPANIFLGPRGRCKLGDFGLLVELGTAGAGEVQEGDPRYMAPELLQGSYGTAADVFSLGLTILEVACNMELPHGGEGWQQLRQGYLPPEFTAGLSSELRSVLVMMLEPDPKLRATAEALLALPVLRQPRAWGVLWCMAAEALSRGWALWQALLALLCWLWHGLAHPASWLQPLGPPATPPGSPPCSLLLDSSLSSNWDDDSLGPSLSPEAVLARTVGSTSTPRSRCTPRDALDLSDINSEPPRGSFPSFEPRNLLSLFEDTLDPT
The assay is described as follows: co-IP; endogenous proteins in A549 cells; IP lysis buffer (1 mM NaF, 50 mM Tris-HCl pH 8.0, 120 mM NaCl, 0.5% NP40, 1 mM EDTA); detection by immunoblot.

Assay [2] has as its target T2, PKMYT1 (exogenous, Myc-tagged or HA-tagged) (UniProt Q99640).
T2 sequence: T1 sequence
As to the kind of experiment: co-IP; indicated constructs transfected into HEK-293T cells; lysates in IP lysis buffer (1 mM NaF, 50 mM Tris-HCl pH 8.0, 120 mM NaCl, 0.5% NP40, 1 mM EDTA) immunoprecipitated with indicated primary antibodies; detection by immunoblot.

Results are given in words; binding and its absence hold for the method and conditions named. In cells and extracts the contact can be indirect. Some results given as binding are weak or reduced against the parent protein; the word gives no strength. For some assays here: Tags and fused reporters may be left off the sequences shown.

Regarding “β-catenin (endogenous) (from UniProt P35222 1-781)”, the binding result in assay [1] is given as “binds”.

Turning to “β-catenin-Flag (exogenous) (from UniProt P35222 1-781)”, in assay [2], the binding entry was “binds”.
